In patent US11345725B2, “Bis-thioether stapled peptides as inhibitors of PRC2 function” (Research Foundation of the City University of New York, priority 2019, dated 2022):
Part of at least one peptide drawing is inferred or uncertain, most often the ends. Starred links: 1 amine or outer side, 2 acyl side, 3 side chain; linkers in the order of their positions; H or OH if unused. Positions of bridges follow the written chain, without caps; N, C: chain ends. Residues, ends and D or L forms follow the SMILES beside them. X2 = C(CC[*:1])CC[*:2]

Assay: FIG. 5A
Method: Table printed on a drawing sheet, FIG. 5A
FIG. 5C is a CD spectra of stapled peptides and their linear counterparts measured in water at 20° C.;
FIG. 5E is a plot of H3K27me3 inhibition obtained in an enzymatic assay using endogenous PRC2 extracted from Caki-1 cells and recombinant PRC2 complex (for compound 11);
First reader's note: Half-life units (min or h) stand in the cells; the compound structures are in the upper table of FIG. 5A.
With `CC[C@H](C)[C@H](NC(=O)[C@H](CC(C)C)NC(=O)[C@H](Cc1ccccc1)NC(=O)[C@H](CC(=O)O)NC(=O)[C@H](Cc1c[nH]cn1)NC(=O)[C@H](CCSC)NC(=O)[C@H](CO)NC(=O)[C@@H](NC(=O)[C@@H]1CSCCCCCSC[C@H](NC(=O)[C@H](CC(N)=O)NC(=O)[C@H](CCCNC(=N)N)NC(=O)[C@H](CS)NC(=O)[C@H](CC(C)C)NC(C)=O)C(=O)N[C@@H](CCSC)C(=O)N[C@@H](CC(C)C)C(=O)N[C@@H](Cc2c[nH]cn2)C(=O)N1)C(C)C)C(N)=O` [compound 12] (Ac-LCRNCMLHCVSMHDFLI-NH2; linker 5-9 via X2) the “Proteolytic Stability (Chymotripsin, t1/2)” value was 432 min and the “Proteolytic Stability (Plasma, t1/2)” value was 426 min. For Ac-EWLREKTITQIEEF-NH2 [compound 7], the “Proteolytic Stability (Chymotripsin, t1/2)” value was 7.6 min and the “Proteolytic Stability (Plasma, t1/2)” value was 5.9 min. For Ac-LCRNFMLHLVSMHDFLI-NH2 [compound 10], the “Proteolytic Stability (Chymotripsin, t1/2)” value was 8.9 min and the “Proteolytic Stability (Plasma, t1/2)” value was 7.7 min.
